From patent publication US7288381 (PHADIA, dated 2007)
No constants are given. Whether binding was seen depends on the method and setting. Some results given as binding are weak or reduced against the parent protein; the word gives no strength.

How the values were obtained:
[1] = biological target: recombinant Phl p 2 from timothy grass (timothy grass) (UniProt P43214); assay: phage panning; ELISA check
[2] = biological target: complete β-gal-fused rPhl p 2 allergen (96 aa) (timothy grass) [β-galactosidase: P00722]; assay: dot blot of β-gal fusion proteins

Row | Binder | binding [1] | binding [2]
1 | Phl p 2-specific human IgE Fab, clone 94 (Fab, V domains shown, Human IgE Fab (heavy chain fragment Fd plus kappa light chain) expressed from pComb3H in E. coli and used as bacterial extract; they start at the Xho I / Sac I cloning sites; also called clone 94-derived IgE Fab; rPhl p 2-specific IgE Fab) VH: LESGPGLVKPAQTLSLSCAVSGGSIRSGGYYWSWIRQHPGKGLEWIGYIYHSGNTYYNPSLKSRIAMSVDTSENKFSLRLNSVTAADTAVYYCARLDGYTLDIWGQGTLVTVSS VL: ELTQSPSSLSASVGDRVTISCRASQRINTYLNWYQHKPGKAPKLLIYAASSLQSGVPSRFSGSGYGTDFTLTISSLQFEDFASYYCQESLSASYTFGQGTKVEIKR | binds | binds
2 | Phl p 2-specific human IgE Fab, clone 60 (Fab, V domains shown, Human IgE Fab (Fd plus kappa light chain) expressed from pComb3H in E. coli and used as bacterial extract; also called rPhl p 2-specific IgE Fab; anti-Phl p 2 Fab) VH: LESGPGLVKPSQTLSLTCTVSGGSIRSGGYYWSWVRQPPGKGLEWIGNIYHSGNTYYNPSLKSRITMSVDTSKNHFSLRLTSVTAADTAVYYCARSDGYTLDNWGQGTLVTVSS VL: ELTQSPSSLSASVGDRVTITCRARQSISTYLNWYQQKPGKAPKLLIWSASNLQSGVPSRFSGSGSGTEFTLTISNLQFEDFASYYCQQSYTTLYTFGSGTKLEIKR | binds | binds
3 | Phl p 2-specific human IgE Fab, clone 100 (Fab, V domains shown, Human IgE Fab (Fd plus kappa light chain) expressed from pComb3H in E. coli and used as bacterial extract; also called rPhl p 2-specific IgE Fab; anti-Phl p 2 Fab) VH: LESGPGLVKPSQTLSLTCTVSGGSIRSGGYYWSWIRQPPGKGLEWIGYIYHSGNTYYNPSLKSRVTMSVDTSKNHFSLRLSSVTAADTAVYYCARSDGYTLDNWGQGTLVTVSS VL: ELTQSPSSVSASVGDRVTITCRASQGISSWLAWYQHQPGKAPKLLIYSASSLQSGVPSRFSGSGYGTDFSLTISSLQFEDSATYYCQQANSFPYTFGQGTKVEIKR | binds | binds
